Values of other authors in US8202995B2, “Pharmaceutically acceptable salts of aporphine derivatives and carboxyl group-containing agents and methods for preparing the same” (Standard Chem. & Pharm. Co., Ltd., priority 2008, dated 2012).
At least one compound was matched to its structure with a doubt left.

Conditions: BIP study, men and women with coronary heart disease, p=0.26; cited from earlier work

CC(C)(Oc1ccc(CCNC(=O)c2ccc(Cl)cc2)cc1)C(=O)O [bezafibrate]
reduction in fatal and nonfatal myocardial infarction and sudden death: 9%
